Measured values published in PubChem BioAssay AID493014 (National Center for Advancing Translational Sciences (NCATS), 2011).
Among all 340,000 compounds or so, about 170 (0.05%) were called active. Inconclusive results, whose numbers are uncertain, are shown with a selection of clear calls. The call rests on the fitted dose curve; in most records, active means well fitted inhibition curve with a large enough effect in the signal ratio, with a control signal flat (not every such curve was filed as active); inconclusive means small, poorly fitted or top-dose-only effect, or effect the other way, or a change in a side signal; inactive means flat fitted curve, though single readings scatter; the % refers to the signal ratio. Potencies beside an inconclusive call are fits to weak or partial responses and may not hold up.

Assay: qHTS Assay to Find Inhibitors of Chronic Active B-Cell Receptor Signaling;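 on activity change, negative = inhibition: plate controls were basal doxycycline-induced cells for no effect and cells given 10 µM MG132 for full effect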
Conditions: ABC-DLBCL IkBa-CBG/CBR reporter, luminescence ratio (green luciferase fused to IkBa over red control in TMD8 lymphoma cells), 4 h; activity change, negative = inhibition: at 46.1 µM (top of the series) unless noted
How it was run: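 Concentration-response series (up to 46 uM) were applied to TMD8 dual-reporter cells for 4 h at 37C with doxycycline. Green/red ratio, after filter-overlap correction, defined %Activity; red signal alone was normalised to basal cells and zero luminescence.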
Potency means the concentration at half of the fitted maximal effect.

SMILES	activity change, negative = inhibition	Potency
Cc1ccc(CNc2ncccc2-c2nc3cc(Cl)ccc3o2)cc1	inconclusive: 5.52%	
NC(=O)Cn1nnc(-c2ccccc2NC(=O)c2cnccn2)n1		inconclusive: 29.1 µM [falling, single point]
COc1cc(NC(=O)CSc2nc3[nH]ncc3c(=O)n2-c2ccc(Cl)cc2)cc(OC)c1	inconclusive: -0.925%	
O=C(CSc1nncn1-c1ccccn1)Nc1ccccc1Cl	inconclusive: -18.9%	
CCSc1nnc(-c2cccc(S(=O)(=O)N(C)C)c2)n1-c1cc(OC)ccc1OC	inconclusive: -0.964%	
O=C(NCCC(=O)N1CCc2ccccc21)c1ccco1	inconclusive: 4.37%	
O=c1oc(-c2ccco2)nc2ccccc12		inconclusive: 22.4 µM [falling, single point]
C#CC[N+]1(CC#Cc2ccc(C)cc2)CCCCC1		inconclusive: 0.00461 µM [falling, full curve, poor fit]
COc1cc(NC(=O)CCN2CCN(C/C=C/c3ccccc3)CC2)cc(OC)c1		inconclusive: 17.8 µM [falling, single point]
CCN(CC(=O)Nc1ccc(OC)cc1)C(=O)Cc1coc2cc(C)c(C)cc12	inconclusive: -11%	
Cc1ccc(/C=C/C(=O)NCc2ccncc2)cc1	inconclusive: -24.5%	
Cc1cc(-c2n[nH]c(=S)n2-c2ccccc2C)cs1		inconclusive: 16.4 µM [cytotoxic, partial curve]
COc1ccc(CCNC(=O)c2ccc(CSc3ccccc3)o2)cc1	inactive	
O=c1c2cc(-c3ccccc3)sc2nc2n1N=C(c1cccs1)CS2		inconclusive: 11.2 µM [falling, partial curve, poor fit]
O=C(Nc1cnccn1)C1c2ccccc2Oc2ccccc21	inactive	
CC/C(=N\Nc1ccccc1[N+](=O)[O-])c1ccc(O)cc1	inactive	
CCOc1ccc(/C=N/NC(=O)c2ccoc2C)cc1OC		inconclusive: 20 µM [falling, single point]
Cc1ccc(NC(=O)COC(=O)Cn2c(C)csc2=O)cc1C	inconclusive: 25.7%	
O=C(Cc1ccc(S(=O)(=O)N2CCOCC2)s1)Nc1cc(C(F)(F)F)ccc1N1CCCC1	inactive	
N#CCC(N)=C(C#N)C#N	inconclusive: 13.8%	
CCCN(CC1CC1)C(=O)COC(=O)c1[nH]c(C)c(C(=O)OCC)c1C	inconclusive: 22.5%	

SMILES	activity change, negative = inhibition	Potency
c1ccc(CN2CCN(CCOCCOc3ccc4c(c3)CCC4)CC2)cc1	inactive	
CC(C)c1c(O)nc(SCc2ccc(F)cc2)[nH]c1=O	inconclusive: 5.95%	
N#Cc1c(N)nc2c(c1-c1ccncc1)CCCC2	inconclusive: 1.48%	
Oc1c(Cl)cc(Cl)cc1/C=C/c1ccc2cccc(O)c2n1		inconclusive: 35.5 µM [falling, single point]
Cc1nc(NC(=O)c2oc3ccccc3c2C)sc1C(=O)N(C)C	inconclusive: 0.861%	
COCCNC(=S)N1CCN(Cc2ccc3c(c2)OCO3)CC1	inactive	
CCN(C(=O)CN1CCCCC1)c1c(N)n(Cc2ccccc2)c(=O)[nH]c1=O	inconclusive: 0.406%	
COc1ccc(C(=O)C(Cc2cc(C(C)=O)ccc2OC)N2CCCC2)cc1 (stereo unspecified)	inconclusive: 2.14%	
CCOc1cc(-c2nnc(SCC(=O)NCc3ccccc3)nc2-c2ccc(OC)c(OCC)c2)ccc1OC		inconclusive: 2.82 µM [falling, full curve, poor fit]
Cc1ccc(NS(=O)(=O)c2c(C)[nH]c(C)c2C(=O)N2CCCCC2)cc1F	inactive	
COC(=O)CSc1nnc(-c2ccccc2OC)o1		inconclusive: 4.61 µM [rising, full curve, poor fit]
O=C(CN1C(=O)c2ccccc2C1=O)NCCc1c[nH]c2ccc(Cl)cc12		inconclusive: 18.4 µM [falling, partial curve, poor fit]
O=C(O)COc1ccc(Br)cc1/C=N/O	inconclusive: -0.24%	
O=C1C2CC=CCC2C(=O)N1c1ccc(NCCc2ccc(O)cc2)c([N+](=O)[O-])c1 (stereo unspecified)	inactive	
O=C(C1CCCN(Cc2ccc([N+](=O)[O-])cc2)C1)N1CCCCC1 (stereo unspecified)	inactive	
N/C(=N\OC(=O)COc1ccc([N+](=O)[O-])cc1)c1cccnc1	inactive	
COc1ccc(OCC(=O)Nc2ccc3c(c2)OCO3)cc1	inconclusive: -18.3%	
CCN(CC)C(=O)C(=O)N/N=C/c1ccc(F)cc1		inconclusive: 5.01 µM [falling, partial curve, poor fit]
Cc1ccc(O)c(CNc2cnc3ccccc3c2)c1	inconclusive: 1.34%	
CCC(CC)=N/N=C/c1c(O)n(CC)c2cc(C3=NNC(=O)CC3)ccc12		inconclusive: 32.6 µM [falling, single point]
Cc1cccc2[nH]c(-c3ccc(NC(=O)c4ccco4)cc3)nc12	inconclusive: -6.94%	

In the list so far, 3 have a thiophene ring, fused or not:
SMILES	activity change, negative = inhibition	Potency
Cc1cc(-c2n[nH]c(=S)n2-c2ccccc2C)cs1		inconclusive: 16.4 µM [cytotoxic, partial curve]
O=c1c2cc(-c3ccccc3)sc2nc2n1N=C(c1cccs1)CS2		inconclusive: 11.2 µM [falling, partial curve, poor fit]
O=C(Cc1ccc(S(=O)(=O)N2CCOCC2)s1)Nc1cc(C(F)(F)F)ccc1N1CCCC1	inactive	

The listing continues:

SMILES	activity change, negative = inhibition	Potency
C=CCOc1c(CNc2cccc(C(=O)O)c2)cccc1OC		inconclusive: 0.461 µM [rising, full curve]
Cc1cc(C)c(NC(=O)c2cc(=O)c3ccccc3o2)c(C)c1	inactive	
COc1ccc(CNC(=S)Nc2ccc(S(N)(=O)=O)cc2)cc1	inconclusive: -3.07%	
CC/C(=N\NC(=O)c1csc(C)c1C)c1cccs1		inconclusive: 35.5 µM [falling, single point]
O=C1c2ccccc2C(Nc2ccc3c(c2)OCCO3)N1Cc1ccccc1 (stereo unspecified)	inconclusive: 17%	
CN(C)C=Nc1ncc2c([nH]c3ccccc32)c1C#N		inconclusive: 31.6 µM [rising, single point]
COc1cc2c(C#N)c(N3CCN(c4ccccc4OC)CC3)nc(N)c2c(N)n1		inconclusive: 14.6 µM [falling, partial curve]
CC(C)NC(=O)Nc1ccc2c(c1)C(=O)N([C@H](C)CO)C[C@@H](C)[C@@H](CN(C)C(=O)NC1CCCCC1)O2	inactive	
CSC1=NCCN1C(=O)c1ccc(S(=O)(=O)N(C)C)cc1	inconclusive: 1.47%	
CCC(CC)NC(=O)COC(=O)c1ccc(OCC(=O)Nc2ccccc2OC)c(OC)c1	inconclusive: -11.2%	
CCN(C(=O)COC(=O)c1c(C)nn(-c2ccccc2)c1C)C1CCS(=O)(=O)C1 (stereo unspecified)		inconclusive: 3.55 µM [falling, partial curve, poor fit]
N#CCCn1nc(-c2ccccc2)cc1-n1c(C(F)(F)F)nc2ccccc21	inconclusive: -1.54%	
CCCOC(=O)c1cc(NC(=O)/C=C/c2ccccc2)ccc1O		inconclusive: 2.82 µM [falling, full curve, poor fit]
CCc1sc(C(=O)Nc2cccnc2)cc1Br	inconclusive: -5.28%	
Cc1cc(OCC(=O)NC(C)C)ccc1Cl	inactive	
O=C(O/N=C1/CCCc2occc21)c1ccc(Cl)cc1Cl	inactive	
O=C(NC1CCc2ccccc21)c1cc(COc2ccc(F)cc2F)on1 (stereo unspecified)		inconclusive: 6.31 µM [falling, partial curve, poor fit]
O=C(CSc1n[nH]c(-c2ccc(Br)cc2)n1)N1CCOCC1	inconclusive: -0.524%	
Cc1ccc(C(c2sc3nc(-c4ccco4)nn3c2O)N2CCOCC2)cc1 (stereo unspecified)	inactive	
COc1ccccc1NC(=O)CSc1nc2ccccc2c(=O)n1CCC(=O)NC1CCCCC1		inconclusive: 35.5 µM [falling, single point]
O=C(/C=C/c1ccccc1Cl)NCCc1ccccc1		inconclusive: 20 µM [falling, single point]

Quoted from the listing, 2 compounds:
SMILES	activity change, negative = inhibition	Potency
COc1ccc(CNC(=S)Nc2ccc(S(N)(=O)=O)cc2)cc1	inconclusive: -3.07%	
CC/C(=N\NC(=O)c1csc(C)c1C)c1cccs1		inconclusive: 35.5 µM [falling, single point]

Following part.

SMILES	activity change, negative = inhibition	Potency
Cc1ccc(C)c(NC(=O)c2cccc(Oc3ccc([N+](=O)[O-])cc3Cl)c2)c1	inactive	
Cn1c(/C(C#N)=C/Nc2ccccn2)nc2ccccc21	inconclusive: 7.45%	
COC(=O)c1c(C)cc(C)n2c1nc1ccccc12	inconclusive: 0.144%	
CC(C)(C)C(=O)O/N=C(\N)COc1cccc(Cl)c1	inconclusive: 9.59%	
CCN(Cc1ccccc1)C(=O)CSc1ncn[nH]1	inactive	
Cc1ccc(S(=O)(=O)N2CCCOC2CNC(=O)C(=O)NCCC2=CCCCC2)cc1 (stereo unspecified)	inconclusive: 2.61%	
CCOC(=O)C1CCCN(C(=O)c2ccc(Cl)cc2)C1 (stereo unspecified)	inactive	
Cc1noc(C)c1CSc1ccccc1C(=O)N(C)CC(=O)Nc1cccc(F)c1	inconclusive: -2.14%	
O=C(Nc1ccc2ccccc2c1)c1cccnc1		inconclusive: 11.2 µM [falling, single point]
CC1CN=C(N(C(=S)Nc2ccccc2)c2cccc(C(F)(F)F)c2)S1 (stereo unspecified)	inconclusive: -0.676%	
COc1ccc(CCNC(=O)c2ccc(CS(=O)Cc3ccc(Cl)cc3)o2)cc1OC (stereo unspecified)	inconclusive: 1.24%	
COCCNCCCCSc1ccc(Cl)cc1	inconclusive: -6.81%	
S=C(NCc1ccc2[nH]c3c(c2c1)CCCC3)Nc1ccccc1Cl		inconclusive: 29.1 µM [falling, single point]
CCN(CC)Cc1c(C(=O)N/N=C/c2cccc3ccccc23)nnn1-c1nonc1N	inconclusive: -2.85%	
CCCc1cc2c(cc1NC(=O)c1ccccc1F)OCO2	inconclusive: 0.179%	
CCN(CC)C(=O)C1CCCN(c2ccc([N+](=O)[O-])cc2/C=N/NC(=O)c2cccc(Br)c2)C1 (stereo unspecified)	inconclusive: 0.945%	
Cc1c(N(C)S(=O)(=O)c2cccc(C(=O)NCC3CCCO3)c2)c(=O)n(-c2ccccc2)n1C (stereo unspecified)	inconclusive: 0.336%	
O=C(N/N=C/C(Cl)=C/c1ccccc1)c1ccccn1		inconclusive: 35.5 µM [rising, single point]
